Data as given in PubChem BioAssay AID1259308 (NCATS, 2017).

Screen: 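Genes whose loss raises luciferase production in HEK293 cells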 (primary screen)
Cells: human HEK293 embryonic kidney cells stably expressing firefly luciferase (HEK-CMV-Luc2-Hygro)
Reagent: single siRNA against human genes, 0.8 pmol siRNA per well
Timing: 72 h
Measured: 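Luciferase light (ONE-Glo) measured on one replicate plate set and viability (CellTiter-Glo) on the other, scaled to a negative control siRNA, with robust z-scores and luciferase per cell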
Direction: total luciferase, z-score: higher = more reporter protein produced
Rule for the call: 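An siRNA counts as active if its total luciferase robust z-score exceeds 3; genes with two or more such siRNAs out of three were retested with fresh siRNAs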
Meaning of the calls: active = raised luciferase; inactive = no rise
The whole screen tested about 59,000 reagents; below is a random part of them. Over the whole deposit, about 1,510 (2.6%) were called active. 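Calls use total luciferase alone and ignore viability, so some active siRNAs may act by altering cell number.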 Entries without a mark were called inactive. Reagents against one gene are numbered here. Not all columns of the deposit are shown.

COBLP1 #1 | total luciferase, z-score = -0.571
COBLP1 #2 | total luciferase, z-score = -0.517
COBLP1 #3 | total luciferase, z-score = -0.787
RPS2P50 #1 | total luciferase, z-score = 0.191
RPS2P50 #2 | total luciferase, z-score = 1.04
RPS2P50 #3 | total luciferase, z-score = 0.106
DGCR8 #1 | total luciferase, z-score = 0.192
DGCR8 #2 | total luciferase, z-score = 0.165
DGCR8 #3 | total luciferase, z-score = -0.756
TINCR #1 | total luciferase, z-score = -0.523
TINCR #2 | total luciferase, z-score = 0.0989
TINCR #3 | total luciferase, z-score = 0.983
GABRA1 #1 | total luciferase, z-score = 0.32
GABRA1 #2 | total luciferase, z-score = 0.213
GABRA1 #3 | total luciferase, z-score = -0.262
POLR3H #1 | total luciferase, z-score = -1.15
POLR3H #2 | total luciferase, z-score = -0.0484
POLR3H #3 | total luciferase, z-score = -1.65

Records listed so far whose gene name starts with D or d (3):
DGCR8 #1 | total luciferase, z-score = 0.192
DGCR8 #2 | total luciferase, z-score = 0.165
DGCR8 #3 | total luciferase, z-score = -0.756

Further records follow:
ZNF746 #1 | total luciferase, z-score = -0.59
ZNF746 #2 | total luciferase, z-score = 3.28 (active)
ZNF746 #3 | total luciferase, z-score = -0.907
UBA3 #1 | total luciferase, z-score = -1.24
UBA3 #2 | total luciferase, z-score = 0.677
UBA3 #3 | total luciferase, z-score = 0.41
FAM114A1 #1 | total luciferase, z-score = 0.352
FAM114A1 #2 | total luciferase, z-score = -0.907
FAM114A1 #3 | total luciferase, z-score = -0.197
HEBP2 #1 | total luciferase, z-score = -0.958
HEBP2 #2 | total luciferase, z-score = 0.23
HEBP2 #3 | total luciferase, z-score = -0.463
ZNF334 #1 | total luciferase, z-score = -0.0738
ZNF334 #2 | total luciferase, z-score = -0.815
ZNF334 #3 | total luciferase, z-score = -1.15
